Measurements published in the supplement of paper PMC3682954.
Several values for one entry are separate records, joined by “and”; a condition that tells them apart may be missing. Identical values can stand only once. Counter-ions that a name gives are not always drawn. ± gives the standard deviation of the averaged measurements. Some of the results follow. Most values come without repeats; read them as rough.

Test system: RAW 264.7
Assay: cell viability (MTT) relative to vehicle control; higher = more viable cells
Settings: stimulus: HMGB1 5 ug/ml, 18 h
[1] = compound concentration: 1 ug/ml

| SMILES | cell viability (compound concentration: 3 uM) | cell viability [1] [%] |
| --- | --- | --- |
| NC(CCCP(=O)(O)O)C(=O)O (stereo not drawn) [D(-)-2-Amino-5-phosphonopentanoic acid] | 98.1% | – |
| CCOc1cc(CC(=O)N[C@@H](CC(C)C)c2ccccc2N2CCCCC2)ccc1C(=O)O [Repaglinide] | 88.1% | – |
| CCOc1cc(CC(=O)N[C@@H](CC(C)C)c2ccccc2N2CCCCC2)ccc1C(=O)O | 100 ± 18% | – |
| CCOC(=O)C1=C(C)NC(C)=C(C(=O)OCC)C1c1ccccc1/C=C/C(=O)OC(C)(C)C [Lacidipine] | 108 ± 2.4% | – |
| CCOC(=O)C1=C(C)NC(C)=C(C(=O)OCC)C1c1ccccc1/C=C/C(=O)OC(C)(C)C | 99.3% | – |
| CO[C@H]1O[C@H](CO)C(O[C@@H]2OC(C(=O)O)[C@@H](O[C@H]3O[C@H](COS(=O)(=O)O)C(O[C@@H]4OC(C(=O)O)[C@@H](O[C@H]5O[C@H](CO)C(O[C@@H]6OC(C(=O)O)[C@@H](O[C@H]7O[C@H](COS(=O)(=O)O)C(O[C@@H]8OC(C(=O)O)=C[C@H](O)C8OS(=O)(=O)O)[C@H](O)[C@H]7NC(C)=O)[C@H](O)[C@H]6O)[C@H](O)[C@H]5NC(C)=O)[C@H](O)[C@H]4O)[C@H](O)[C@H]3NC(C)=O)[C@H](O)[C@H]2O)[C@H](O)[C@H]1NC(C)=O (some centres not stated) | 113% | – |
| COc1ccc(C(=O)CC(=O)c2ccc(C(C)(C)C)cc2)cc1 | 108% | – |
| COc1ccc(C(=O)c2ccccc2)c(O)c1 | 103% | – |
| COc1ccc(C(=O)c2ccccc2)c(O)c1 [Oxybenzone] | 103% | – |
| COc1c(N2C[C@@H]3CCCN[C@@H]3C2)c(F)cc2c(=O)c(C(=O)O)cn(C3CC3)c12 [Moxifloxacin] | 138% | – |
| COc1c(N2C[C@@H]3CCCN[C@@H]3C2)c(F)cc2c(=O)c(C(=O)O)cn(C3CC3)c12 | 92.6% and 105% | – |
| CC1(C)CCC[C@]2(C)[C@H]3CC(=O)O[C@]3(C)CC[C@@H]12 [(3aR)-(+)-Sclareolide] | – | 96.8 |
| CC(=O)OCC(=O)[C@@]1(O)[C@H](C)C[C@H]2[C@@H]3CCC4=CC(=O)C=C[C@]4(C)[C@@]3(F)[C@@H](O)C[C@@]21C [Dexamethasone acetate] | 100% | – |
| CC(=O)OCC(=O)[C@@]1(O)[C@H](C)C[C@H]2[C@@H]3CCC4=CC(=O)C=C[C@]4(C)[C@@]3(F)[C@@H](O)C[C@@]21C [dexamethasone 21-acetate] | – | 104 |
| CC(=O)OCC(=O)[C@@]1(O)[C@H](C)C[C@H]2[C@@H]3CCC4=CC(=O)C=C[C@]4(C)[C@@]3(F)[C@@H](O)C[C@@]21C | 107% | – |
| COc1ncnc(NS(=O)(=O)c2ccc(N)cc2)c1OC | 112% | – |
| COc1ncnc(NS(=O)(=O)c2ccc(N)cc2)c1OC [Sulfadoxine] | 103 ± 14% | – |
| CC(C)(C)NC(=O)[C@@H]1C[C@@H]2CCCC[C@@H]2CN1C[C@@H](O)[C@H](Cc1ccccc1)NC(=O)[C@H](CC(N)=O)NC(=O)c1ccc2ccccc2n1 | 99.7% | – |
| CC(C)(C)NC(=O)[C@@H]1C[C@@H]2CCCC[C@@H]2CN1C[C@@H](O)[C@H](Cc1ccccc1)NC(=O)[C@H](CC(N)=O)NC(=O)c1ccc2ccccc2n1 [Saquinavir mesylate] | 106% | – |
| COc1ccc2[nH]c([S@@+]([O-])Cc3ncc(C)c(OC)c3C)nc2c1 [Esomeprazole magnesium dihydrate] | 109% | – |
| COc1ccc2[nH]c([S@@+]([O-])Cc3ncc(C)c(OC)c3C)nc2c1 [Esomeprazole] | 100% | – |
| CC(C)NCC(O)c1ccc(O)c(O)c1 (configuration not stated) | 96.8% | – |
| CC(C)NCC(O)c1ccc(O)c(O)c1 (stereo not drawn) [S(+)-Isoproterenol (+)-bitartrate] | 98.6% | – |
| CCCCCN(CCCCC)C(=O)C(CCC(=O)O)NC(=O)c1ccc(Cl)c(Cl)c1 (configuration not stated) [Lorglumide sodium] | 104% | – |
| CCCCCN(CCCCC)C(=O)C(CCC(=O)O)NC(=O)c1ccc(Cl)c(Cl)c1 (configuration not stated) [Lorglumide] | 110% | – |
| CCCCCN(CCCCC)C(=O)C(CCC(=O)O)NC(=O)c1ccc(Cl)c(Cl)c1 (configuration not stated) [Lorglumide sodium salt] | 106% | – |

| SMILES | cell viability (compound concentration: 3 uM) | cell viability [1] [%] |
| --- | --- | --- |
| CCCCCN(CCCCC)C(=O)C(CCC(=O)O)NC(=O)c1ccc(Cl)c(Cl)c1 (configuration not stated) | 108% | – |
| Nc1nc2c(ncn2COCCO)c(=O)[nH]1 | 118 ± 25% | – |
| Nc1nc2c(ncn2COCCO)c(=O)[nH]1 [Acyclovir] | 91.2 ± 2.1% | – |
| Nc1nc2c(ncn2COCCO)c(=O)[nH]1 [Acycloguanosine] | 91% | – |
| NCCSSCCN [Cystamine dihydrochloride] | 99.4% | – |
| CC(C)CC(N)C(=O)O (racemic) [DL-Leucine] | – | 107 |
| Cc1cc(NC2CCCCC2)nc(-n2nc(C)cc2C)n1 | 98.4% | – |
| OC(CCN1CCCCC1)(c1ccccc1)c1ccccc1 [Pridinol methanesulfonate salt] | 116% | – |
| OC(CCN1CCCCC1)(c1ccccc1)c1ccccc1 | 110% | – |
| CCCCC(=O)N(Cc1ccc(-c2ccccc2-c2nnn[nH]2)cc1)[C@H](C(=O)O)C(C)C | 104 ± 15% | – |
| CCN(CC)CCNC(=O)c1cc(Br)c(N)cc1OC | 111% | – |
| CCN(CC)CCNC(=O)c1cc(Br)c(N)cc1OC [Bromopride] | 108% | – |
| CCc1ccc(/C=C2/SC(=S)NC2=O)cc1 | 86.7% | – |
| CC1=CC(=O)[C@H]2C[C@@H]1C2(C)C [L(-)-Verbenone] | – | 104 |
| C=CCNc1ncnc2ccc(Br)cc12 | 104% | – |
| O=C(O)C(=O)Cc1ccccc1 [Phenylpyruvic acid] | – | 92.9 |
| CC(C)NNC(=O)c1ccncc1 [Iproniazid phosphate] | 104% | – |
| CC(C)NNC(=O)c1ccncc1 | 103 ± 9.2% | – |
| CC(C)NNC(=O)c1ccncc1 [Iproniazid] | 103% | – |
| CC(C)NNC(=O)c1ccncc1 [Iproniazide phosphate] | 106% | – |
| O=c1cc(-c2ccc(O)c(O)c2)oc2cccc(O)c12 | – | 77 |
| O=C(O)c1cc(=O)c2ccccc2[nH]1 [Kynurenic acid] | 96.5% | – |
| O=C(O)c1cc(=O)c2ccccc2[nH]1 [Kynurenic Acid] | – | 95.1 |
| CCOC(N)=O | 113 ± 24% | – |
| O=c1cc(N2CCOCC2)oc2c(-c3ccccc3)cccc12 [LY-294,002 hydrochloride] | 95.3% | – |
| O=C1c2cccc(O)c2C(=O)c2c(O)cccc21 | 111% | – |
